Laboratory results taken from US9732097B2, “Process for the synthesis of a phosphoinositide 3-kinase inhibitor” (Incyte Corporation, priority 2015, dated 2017).
At least one compound was matched to its structure with a doubt left.

Amino acid sequences for entries named in this document (tags omitted). Residues count along the entry.
UniProt O60674, 828-1132: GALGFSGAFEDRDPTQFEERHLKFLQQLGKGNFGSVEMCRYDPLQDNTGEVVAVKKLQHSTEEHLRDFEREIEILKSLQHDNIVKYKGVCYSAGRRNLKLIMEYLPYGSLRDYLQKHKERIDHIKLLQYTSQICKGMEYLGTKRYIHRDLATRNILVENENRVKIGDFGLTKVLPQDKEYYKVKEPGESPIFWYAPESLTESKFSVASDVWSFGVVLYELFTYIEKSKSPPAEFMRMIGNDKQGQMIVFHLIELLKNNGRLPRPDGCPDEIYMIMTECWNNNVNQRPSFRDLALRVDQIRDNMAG

Molecular target: human JAK2 (Homo sapiens (Human), UniProt O60674)
Experiment: In vitro JAK kinase assay (Example D, HTRF), JAK2
Assay type: biochemical
Settings: ratio of JAK2 to JAK1 IC50, 1 mM ATP

Compound: CC(C)(O)c1cc(O[C@H]2CC[C@@H](N3CC(CC#N)(n4cc(-c5ncnc6[nH]ccc56)cn4)C3)CC2)nc(C(F)(F)F)c1 [compound 20, {1-(cis-4-{[4-(1-hydroxy-1-methylethyl)-6-(trifluoromethyl)pyridin-2-yl]oxy}cyclohexyl)-3-[4-(7H-pyrrolo[2,3-d]pyrimidin-4-yl)-1H-pyrazol-1-yl]azetidin-3-yl}acetonitrile]
- JAK2/JAK1: >10
